Results from the supplement of paper PMC9103864.

System: BMSC (primary human bone marrow mesenchymal stromal cells)
Test: drug sensitivity score (DSS); higher = more sensitive

C[C@@H]1C[C@H](N)C[C@H](c2ccncc2NC(=O)c2ccc(F)c(-c3c(F)cccc3F)n2)C1 [PIM-447]
drug sensitivity score: 4.1
